Measured values: patent US20090230300A1, “RAPID DETECTION OF VOLATILE ORGANIC COMPOUNDS FOR IDENTIFICATION OF BACTERIA IN A SAMPLE” (priority 2007, published 2009)

Columns and labels:
Conditions in all cases: headspace of culture
[1] = test system: Staphylococcus aureus; assay: Headspace VOC detection by dual GC-MS/DMS in Staphylococcus aureus culture; design: key: Y = detectable; ND = not detectable
[2] = test system: Klebsiella pneumonia; assay: Headspace VOC detection by dual GC-MS/DMS in Klebsiella pneumonia culture; design: key: Y = detectable; ND = not detectable
[3] = test system: E. Coli; assay: Headspace VOC detection by dual GC-MS/DMS in E. coli culture; design: species or system Escherichia coli; key: Y = detectable; ND = not detectable

Row | SMILES | VOC detectable in Staphylcoccus [1] | VOC detectable in Klebsiella [2] | VOC detectable in E. Coli [3]
1 | CC(=O)C(C)=O [2,3-butanedione] | Y | – | –
2 | CCCCCC(C)=O [2-heptanone] | – | Y | –
3 | CCCCCCCC(C)=O [2-nonanone] | – | Y | –
4 | CC(=O)C(C)O (stereo not shown) [3-hydroxy-2-butanone] | Y | – | –
5 | O=CCc1ccccc1 [benzeneacetaldehyde] | Y | – | –
6 | CS [methanethiol] | – | Y | Y
